According to article PMC4754342:
No constants are given. Whether binding was seen depends on the method and setting. Binding seen in cells or lysates may run through a third protein. Some results given as binding are weak or reduced against the parent protein; the word gives no strength. One block for each binder: values may come before it.

Chains of the proteins cited; added tags and fusions are not shown. Lines headed by an entry give the natural chain unless they say otherwise; changes in a name come on top.
UniProt Q7L523: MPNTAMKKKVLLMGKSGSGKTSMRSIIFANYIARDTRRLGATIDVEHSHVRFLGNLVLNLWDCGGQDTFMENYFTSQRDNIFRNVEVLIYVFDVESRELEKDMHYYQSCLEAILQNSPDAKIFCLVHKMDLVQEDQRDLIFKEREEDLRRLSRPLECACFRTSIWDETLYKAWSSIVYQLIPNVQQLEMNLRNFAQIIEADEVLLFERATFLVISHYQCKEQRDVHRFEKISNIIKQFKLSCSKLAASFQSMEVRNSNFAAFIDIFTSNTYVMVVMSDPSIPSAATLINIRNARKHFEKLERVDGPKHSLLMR
UniProt Q9HB90: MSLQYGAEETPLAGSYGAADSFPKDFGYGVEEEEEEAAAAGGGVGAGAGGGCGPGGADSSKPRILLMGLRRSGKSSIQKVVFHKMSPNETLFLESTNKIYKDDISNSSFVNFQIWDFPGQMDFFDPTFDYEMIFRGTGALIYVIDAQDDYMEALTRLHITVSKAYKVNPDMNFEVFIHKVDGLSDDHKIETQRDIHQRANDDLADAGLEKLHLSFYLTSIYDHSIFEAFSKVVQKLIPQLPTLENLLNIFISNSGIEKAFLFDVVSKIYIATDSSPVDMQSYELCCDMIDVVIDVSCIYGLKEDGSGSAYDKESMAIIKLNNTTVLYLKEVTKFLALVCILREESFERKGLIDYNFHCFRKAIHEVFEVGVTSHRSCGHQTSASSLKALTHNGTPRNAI

What was measured:
[1] = biological target: Rag GTPases (FLAG-hRagA and hRagC) (human) (UniProt Q7L523+Q9HB90); assay: co-IP; FLAG-tagged proteins precipitated from lysates of transfected cells with anti-FLAG M2 affinity gel, 2-3 h at 4 °C; IP lysis buffer 50 mM Tris pH 7.5, 1% Triton X-100, 150 mM NaCl, 50 mM NaF; four washes; co-purifying proteins detected by immunoblot; cells treated with various stresses (2-DG and pH 9.4 medium among them) before lysis
[2] = biological target: Rag GTPases (FLAG-hRagA and hRagC) (human), Q7L523+Q9HB90; assay: as above; conditions: remark: other sources report otherwise

binding [1]: binds
B1: TBC1D7 (protein, UniProt Q9P0N9 1-293)
chain: MTEDSQRNFRSVYYEKVGFRGVEEKKSLEILLKDDRLDTEKLCTFSQRFPLPSMYRALVWKVLLGILPPHHESHAKVMMYRKEQYLDVLHALKVVRFVSDATPQAEVYLRMYQLESGKLPRSPSFPLEPDDEVFLAIAKAMEEMVEDSVDCYWITRRFVNQLNTKYRDSLPQLPKAFEQYLNLEDGRLLTHLRMCSAAPKLPYDLWFKRCFAGCLPESSLQRVWDKVVSGSCKILVFVAVEILLTFKIKVMALNSAEKITKFLENIPQDSSDAIVSKAIDLWHKHCGTPVHSS

binding [2]: binds
B2: TSC1, Q92574 1-1164 (protein)
chain: MAQQANVGELLAMLDSPMLGVRDDVTAVFKENLNSDRGPMLVNTLVDYYLETSSQPALHILTTLQEPHDKHLLDRINEYVGKAATRLSILSLLGHVIRLQPSWKHKLSQAPLLPSLLKCLKMDTDVVVLTTGVLVLITMLPMIPQSGKQHLLDFFDIFGRLSSWCLKKPGHVAEVYLVHLHASVYALFHRLYGMYPCNFVSFLRSHYSMKENLETFEEVVKPMMEHVRIHPELVTGSKDHELDPRRWKRLETHDVVIECAKISLDPTEASYEDGYSVSHQISARFPHRSADVTTSPYADTQNSYGCATSTPYSTSRLMLLNMPGQLPQTLSSPSTRLITEPPQATLWSPSMVCGMTTPPTSPGNVPPDLSHPYSKVFGTTAGGKGTPLGTPATSPPPAPLCHSDDYVHISLPQATVTPPRKEERMDSARPCLHRQHHLLNDRGSEEPPGSKGSVTLSDLPGFLGDLASEEDSIEKDKEEAAISRELSEITTAEAEPVVPRGGFDSPFYRDSLPGSQRKTHSAASSSQGASVNPEPLHSSLDKLGPDTPKQAFTPIDLPCGSADESPAGDRECQTSLETSIFTPSPCKIPPPTRVGFGSGQPPPYDHLFEVALPKTAHHFVIRKTEELLKKAKGNTEEDGVPSTSPMEVLDRLIQQGADAHSKELNKLPLPSKSVDWTHFGGSPPSDEIRTLRDQLLLLHNQLLYERFKRQQHALRNRRLLRKVIKAAALEEHNAAMKDQLKLQEKDIQMWKVSLQKEQARYNQLQEQRDTMVTKLHSQIRQLQHDREEFYNQSQELQTKLEDCRNMIAELRIELKKANNKVCHTELLLSQVSQKLSNSESVQQQMEFLNRQLLVLGEVNELYLEQLQNKHSDTTKEVEMMKAAYRKELEKNRSHVLQQTQRLDTSQKRILELESHLAKKDHLLLEQKKYLEDVKLQARGQLQAAESRYEAQKRITQVFELEILDLYGRLEKDGLLKKLEEEKAEAAEAAEERLDCCNDGCSDSMVGHNEEASGHNGETKTPRPSSARGSSGSRGGGGSSSSSSELSTPEKPPHQRAGPFSSRWETTMGEASASIPTTVGSLPSSKSFLGMKARELFRNKSESQCDEDGMTSSLSESLKTELGKDLGVEAKIPLNLDGPHPSPPTPDSVGQLHIMDYNETHHEHS
